Patent publication US20250388688A1 (ETHYREAL BIO, published 2025)
Residue numbers refer to the chain shown, from its start. Results are given in words; binding and its absence hold for the method and conditions named. Some binding calls cover weakened binding; strength is not graded here.

Chains of the proteins cited; added tags and fusions are not shown. Residues count along the entry.
UniProt P16473, residues 22-260: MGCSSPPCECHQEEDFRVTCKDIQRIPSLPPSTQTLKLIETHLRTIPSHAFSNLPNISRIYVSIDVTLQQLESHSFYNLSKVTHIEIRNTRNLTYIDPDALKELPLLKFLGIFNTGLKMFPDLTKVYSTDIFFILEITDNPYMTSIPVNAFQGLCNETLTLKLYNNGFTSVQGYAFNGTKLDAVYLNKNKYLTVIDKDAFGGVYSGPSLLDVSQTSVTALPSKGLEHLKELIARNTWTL

Target: human TSHR (antigen of the yeast display screens) (human) (UniProt P16473)
Experiment: yeast display flow cytometry, 10 nM huTSHR at pH 7.5 and at pH 5.5; clone binding fluorescence divided by WT binding fluorescence

B1: T3-1.10 (Fab, V domains shown)
VH: EVQLVQSGAEVKKPGESLKISCKGSGYSFTSYWIGWVRQMPGKGLEWMGIIYPGDTDTRYSPSFQGQVTISADKSISTAYLQWSSLKASDTAVYYCVGLDWHYNPLRYWGPGTLVTVSS
VL: QSVLTQPPSVSAAPGQKVTISCSGSSSDIGNNYVSWYQQLPGTAPKLLIYDNNKRPSGIPDRFSGSKSGTSATLGITGLQTGDEADYYCGTWESRLGIAVFGGGTQLTVL
  binding: binds

B2: T3-1.38 (Fab, V domains shown)
VH: B1 VH with S28H
VL: B1 VL
  binding: binds

B3: T3-1.41 (Fab, V domains shown)
VH: B1 VH with T30H
VL: B1 VL
  binding: binds

B4: T3-1.44 (Fab, V domains shown)
VH: B1 VH with Y32H
VL: B1 VL
  binding: binds

B5: T3-1.48 (Fab, V domains shown)
VH: B1 VH with S28H
VL: B1 VL with N31R
  binding: binds

B6: T3-1.53 (Fab, V domains shown)
VH: B1 VH with S31H
VL: B1 VL with N31R
  binding: binds

B7: T3-1.57 (Fab, V domains shown)
VH: B1 VH with S28H, T30H
VL: B1 VL
  binding: binds

B8: T3-1.59 (Fab, V domains shown)
VH: B1 VH with S28H, S31H
VL: B1 VL
  binding: binds
